Some of these results come from one statement about several compounds together. At least one read-out could not be matched to a standard name with certainty.
System: rat oligodendrocyte progenitor cells
Experiment: Promotive activity of rat oligodendrocyte progenitor cell differentiation-1 (MBP gene expression, mRNA)
Assay type: cell-based
Conditions: 1 μM, 4 days, MBP/β actin mRNA
Experimental: Regarding vitamin D derivatives, which was confirmed to act on the vitamin D receptor (VDR) in Example 352, the promotive activity of oligodendrocyte progenitor cell (OPC) differentiation was evaluated by MBP gene expression (mRNA).
A forebrain obtained from SD rat (Charles River Japan, 1 day old) was crushed with 70 μm Cell Strainer (Falcon #352350), and a cell suspension was prepared by collecting the cells in oligodendrocyte progenitor cell separation medium (20% FBS/2 mM Glutamax (Gibco #35050-061)/i mM sodium pyruvate (Gibco #11360-070)/1% penicillin-streptomycin (Invitrogen #15140-122)/DMEM (Gibco #11960-044)). The cell suspension was seeded in a poly-D-lysine coated T75 flask (Thermo Fisher Scientific #132704) and cultured for about 2 weeks. After culturing, the flask was shaken using a rotary shaker ([…] #WB-101SRC) for about 1 hour (37° C., 100 rpm), and the supernatant was discarded to remove microglia. Subsequently, oligodendrocyte progenitor cell separation medium was added to the flask, and the mixture was similarly shaken for about 22 hours (37° C., 200 rpm), and the supernatant was collected to prepare oligodendrocyte progenitor cells.
The oligodendrocyte progenitor cell prepared was suspended in a differentiation medium (2% B27 (Thermo Fisher Scientific, Inc. #17504-044)/1% penicillin-streptomycin (Invitrogen Corporation #15140-122)/10 ng/mL CNTF (PeproTech Inc. #AF-450-13)/DMEM (Gibco #11960-044)), and seeded on a 96-well plate coated with poly-L-ornithine (FUJIFILM Wako Pure Chemical Corporation #163-27421) under the condition of 0.65×10^4 cells/well, and on a 384-well plate under the condition of 2×10^3 cells/well using an automatic dispensing system (LABCYTE #Echo555). […] Subsequently, images of each well were acquired using a fluorescence microscope (KEYENCE CORPORATION #BZ-X800), the number of MBP-positive cells and Hoechst 33342-positive cells were measured using an image analysis application (KEYENCE CORPORATION #BZ-X800 Analyzer), and then the ratio (the number of MBP-positive cells/the number of Hoechst33342-positive cells) was calculated. […] MBP (Thermo Fisher Scientific, Inc. #Assay ID Rn00690616_ml) and β actin (Thermo Fisher Scientific, Inc. #Assay ID Rn00667869_ml) were used as primers, and the expression levels of each were measured and the ratio (MBP/β actin) was calculated.

| SMILES | promotive activity at T3 base (MBP gene expression; DMSO 0%, T3 100%) | promotive activity at T3 base (MBP gene expression; DMSO 0%, T3 100%) (listed as DO10) |
| --- | --- | --- |
| C=C1[C@H](O)CC(=C/C=C2\CCC[C@]3(C)[C@@H]([C@H](C)CN4CCO[C@@H](C)C4)CC[C@@H]23)C[C@H]1O [Compound D010, (1R,3R)-5-(2-((1R,3aS,7aR,E)-7a-methyl-1-((S)-1-((S)-2-methylmorpholino)propan-2-yl)-octahydro-4H-inden-4-ylidene)ethylidene)-2-methylene-cyclohexane-1,3-diol] | ≥ 20% | ≥ 50% |
| C=C1/C(=C\C=C2/CCC[C@]3(C)[C@@H]([C@H](C)CN4CCCC(C)(O)C4)CC[C@@H]23)C[C@@H](O)C[C@@H]1O (single isomer, unassigned) [Compound C037b] | ≥ 20% | – |
| C[C@H](CN1CCCC(O)(C(F)F)C1)[C@H]1CC[C@H]2/C(=C/C=C3C[C@@H](O)C[C@H](O)C3)CCC[C@]12C (single isomer, unassigned) [Compound C035b] | ≥ 20% | – |

Reference: patent publication US20230348376A1 (TEIJIN PHARMA LIMITED, priority 2020, published 2023)
